Data reported in patent US11331387B2, “Self-assembled drug-loading system and preparation method therefor” (SHANGHAI SELECTION BIOSCIENCE LLC., priority 2016, dated 2022).

Assay: photothermal effect at the solution level, 808 nm laser, infrared imaging camera
Type: physicochemical
Settings: continuously irradiated with 808 nm laser

**Q.** For `CC1(C)C(/C=C/C=C/C=C/C=C2\N(CCCCS(=O)(=O)[O-])c3ccc4ccccc4c3C2(C)C)=[N+](CCCCS(=O)(=O)[O-])c2ccc3ccccc3c21.[Na+]` [ICG, indocyanine green], which “temperature raised to” value is on record?
**A.** Its value is 53.9 °C.
